We go through seven molecules from doi:10.1101/2024.08.01.24310552.

Amino acid sequences for entries named in this document (tags omitted).
UniProt O14980: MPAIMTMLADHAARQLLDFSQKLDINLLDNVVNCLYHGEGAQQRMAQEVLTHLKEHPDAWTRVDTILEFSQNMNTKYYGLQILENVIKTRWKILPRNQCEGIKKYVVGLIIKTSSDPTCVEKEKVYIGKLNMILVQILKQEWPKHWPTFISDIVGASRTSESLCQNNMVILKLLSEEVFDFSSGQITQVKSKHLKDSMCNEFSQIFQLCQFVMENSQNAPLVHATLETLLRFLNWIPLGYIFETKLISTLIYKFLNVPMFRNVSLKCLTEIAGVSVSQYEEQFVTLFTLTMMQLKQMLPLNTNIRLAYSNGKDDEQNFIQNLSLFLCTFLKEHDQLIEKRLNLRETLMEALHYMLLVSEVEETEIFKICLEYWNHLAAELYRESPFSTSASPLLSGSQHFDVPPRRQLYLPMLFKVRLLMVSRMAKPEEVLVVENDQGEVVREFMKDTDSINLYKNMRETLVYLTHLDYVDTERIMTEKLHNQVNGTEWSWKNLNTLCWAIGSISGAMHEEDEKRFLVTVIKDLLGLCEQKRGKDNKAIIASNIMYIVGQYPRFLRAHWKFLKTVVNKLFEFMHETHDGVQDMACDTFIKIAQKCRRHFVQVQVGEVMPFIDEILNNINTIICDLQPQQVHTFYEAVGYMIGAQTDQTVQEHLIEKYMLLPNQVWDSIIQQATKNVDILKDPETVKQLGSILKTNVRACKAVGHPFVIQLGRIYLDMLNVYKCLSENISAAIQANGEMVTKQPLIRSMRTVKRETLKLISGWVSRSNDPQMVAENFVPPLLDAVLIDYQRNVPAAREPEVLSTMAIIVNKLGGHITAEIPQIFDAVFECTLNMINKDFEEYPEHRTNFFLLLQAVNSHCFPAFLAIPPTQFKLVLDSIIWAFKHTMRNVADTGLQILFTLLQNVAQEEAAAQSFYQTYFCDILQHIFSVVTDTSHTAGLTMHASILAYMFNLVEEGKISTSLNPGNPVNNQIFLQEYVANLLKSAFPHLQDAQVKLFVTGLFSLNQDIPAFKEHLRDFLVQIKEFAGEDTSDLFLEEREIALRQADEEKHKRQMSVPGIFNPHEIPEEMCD

Results are given in words; binding and its absence hold for the method and conditions named. Binding seen in cells or lysates may run through a third protein. Here binding means that the protein was enriched with, or labelled near, the bait; the list need not be complete. No binding means not detected with the bait.

T1: NXT2 (native protein pulled down from adult human testis) (human (endogenous in adult testis)) (UniProt Q9NPJ8)
T1 sequence: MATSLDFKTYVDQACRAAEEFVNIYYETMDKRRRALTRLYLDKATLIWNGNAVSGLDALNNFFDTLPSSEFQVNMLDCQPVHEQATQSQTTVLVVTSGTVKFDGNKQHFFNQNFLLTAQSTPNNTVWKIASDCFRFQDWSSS

B1: NXT1 (protein, UniProt Q9UKK6 1-140)
chain: MASVDFKTYVDQACRAAEEFVNVYYTTMDKRRRLLSRLYMGTATLVWNGNAVSGQESLSEFFEMLPSSEFQISVVDCQPVHDEATPSQTTVLVVICGSVKFEGNKQRDFNQNFILTAQASPSNTVWKIASDCFRFQDWAS
B2: NXF2 (endogenous, testis) (protein, UniProt Q9GZY0 1-626)
chain: MCSTLKKCGTYRTEVAECHDHGSTFQGRKKGGSSFRDNFDKRSCHYEHGGYERPPSHCQENDGSVEMRDVHKDQQLRHTPYSIRCERRMKWHSEDEIRITTWRNRKPPERKMSQNTQDGYTRNWFKVTIPYGIKYDKAWLMNSIQSHCSDRFTPVDFHYVRNRACFFVQDASAASALKDVSYKIYDDENQKICIFVNHSTAPYSVKNKLKPGQMEMLKLTMNKRYNVSQQALDLQNLRFDPDLMGRDIDIILNRRNCMAATLKIIERNFPELLSLNLCNNKLYQLDGLSDITEKAPKVKTLNLSKNKLESAWELGKVKGLKLEELWLEGNPLCSTFSDQSAYVSAIRDCFPKLLRLDGRELSAPVIVDIDSSETMKPCKENFTGSETLKHLVLQFLQQYYSIYDSGDRQGLLGAYHDEACFSLAIPFDPKDSAPSSLCKYFEDSRNMKTLKDPYLKGELLRRTKRDIVDSLSALPKTQHDLSSILVDVWCQTERMLCFSVNGVFKEVEGQSQGSVLAFTRTFIATPGSSSSLCIVNDELFVRDASPQETQSAFSIPVSTLSSSSEPSLSQEQQEMVQAFSAQSGMKLEWSQKCLQDNEWNYTRAGQAFTMLQTEGKIPAEAFKQIS
B3: NUP93 (protein, UniProt Q8N1F7 1-819)
chain: MDTEGFGELLQQAEQLAAETEGISELPHVERNLQEIQQAGERLRSRTLTRTSQETADVKASVLLGSRGLDISHISQRLESLSAATTFEPLEPVKDTDIQGFLKNEKDNALLSAIEESRKRTFGMAEEYHRESMLVEWEQVKQRILHTLLASGEDALDFTQESEPSYISDVGPPGRSSLDNIEMAYARQIYIYNEKIVNGHLQPNLVDLCASVAELDDKSISDMWTMVKQMTDVLLTPATDALKNRSSVEVRMEFVRQALAYLEQSYKNYTLVTVFGNLHQAQLGGVPGTYQLVRSFLNIKLPAPLPGLQDGEVEGHPVWALIYYCMRCGDLLAASQVVNRAQHQLGEFKTWFQEYMNSKDRRLSPATENKLRLHYRRALRNNTDPYKRAVYCIIGRCDVTDNQSEVADKTEDYLWLKLNQVCFDDDGTSSPQDRLTLSQFQKQLLEDYGESHFTVNQQPFLYFQVLFLTAQFEAAVAFLFRMERLRCHAVHVALVLFELKLLLKSSGQSAQLLSHEPGDPPCLRRLNFVRLLMLYTRKFESTDPREALQYFYFLRDEKDSQGENMFLRCVSELVIESREFDMILGKLENDGSRKPGVIDKFTSDTKPIINKVASVAENKGLFEEAAKLYDLAKNADKVLELMNKLLSPVVPQISAPQSNKERLKNMALSIAERYRAQGISANKFVDSTFYLLLDLITFFDEYHSGHIDRAFDIIERLKLVPLNQESVEERVAAFRNFSDEIRHNLSEVLLATMNILFTQFKRLKGTSPSSSSRPQRVIEDRDSQLRSQARTLITFAGMIPYRTSGDTNARLVQMEVLMN
B4: NXF3 (endogenous, testis) (protein, UniProt Q9H4D5 1-531)
chain: MSLPSGHTTGHTDQVVQRRARCWDIYQRRFSSRSEPVNPGMHSSSHQQQDGDAAMHGAHMDSPVRYTPYTISPYNRKGSFRKQDQTHVNMEREQKPPERRMEGNMPDGTLGSWFKITVPFGIKYNEKWLLNLIQNECSVPFVPVEFHYENMHASFFVENASIAYALKNVSGKIWDEDNEKISIFVNPAGIPHFVHRELKSEKVEQIKLAMNQQCDVSQEALDIQRLPFYPDMVNRDTKMASNPRKCMAASLDVHEENIPTVMSAGEMDKWKGIEPGEKCADRSPVCTTFSDTSSNINSILELFPKLLCLDGQQSPRATLCGTEAHKRLPTCKGSFFGSEMLKNLVLQFLQQYYLIYDSGDRQGLLSAYHDEACFSLSIPFNPEDSAPSSFCKFFKDSRNIKILKDPYLRGELLKHTKLDIVDSLSALPKTQHDLSSFLVDMWYQTEWMLCFSVNGVFKEVEGQSQGSVLAFTRTFIATPGSSSSLCIVNDKLFVRDTSHQGTQSALFTLVPTAFSSSVPAFSQEQQKMLPS
B5: SPATA5L1 (protein, UniProt Q9BVQ7 1-753)
chain: MAPDSDPFPEGPLLKLLPLDARDRGTQRCRLGPAALHALGARLGSAVKISLPDGGSCLCTAWPRRDGADGFVQLDPLCASPGAAVGASRSRRSLSLNRLLLVPCPPLRRVAVWPVLRERAGAPGARNTAAVLEAAQELLRNRPISLGHVVVAPPGAPGLVAALHIVGGTPSPDPAGLVTPRTRVSLGGEPPSEAQPQPEVPLGGLSEAADSLRELLRLPLRYPRALTALGLAVPRGVLLAGPPGVGKTQLVRAVAREAGAELLAVSAPALQGSRPGETEENVRRVFQRARELASRGPSLLFLDEMDALCPQRGSRAPESRVVAQVLTLLDGASGDREVVVVGATNRPDALDPALRRPGRFDREVVIGTPTLKQRKEILQVITSKMPISSHVDLGLLAEMTVGYVGADLTALCREAAMHALLHSEKNQDNPVIDEIDFLEAFKNIQPSSFRSVIGLMDIKPVDWEEIGGLEDVKLKLKQSIEWPLKFPWEFVRMGLTQPKGVLLYGPPGCAKTTLVRALATSCHCSFVSVSGADLFSPFVGDSEKVLSQIFRQARASTPAILFLDEIDSILGARSASKTGCDVQERVLSVLLNELDGVGLKTIERRGSKSSQQEFQEVFNRSVMIIAATNRPDVLDTALLRPGRLDKIIYIPPPDHKGRLSILKVCTKTMPIGPDVSLENLAAETCFFSGADLRNLCTEAALLALQENGLDATTVKQEHFLKSLKTVKPSLSCKDLALYENLFKKEGFSNVEGI
B6: SPATA5 (protein, UniProt Q8NB90 1-893)
chain: MSSKKNRKRLNQSAENGSSLPSAASSCAEARAPSAGSDFAATSGTLTVTNLLEKVDDKIPKTFQNSLIHLGLNTMKSANICIGRPVLLTSLNGKQEVYTAWPMAGFPGGKVGLSEMAQKNVGVRPGDAIQVQPLVGAVLQAEEMDVALSDKDMEINEEELTGCILRKLDGKIVLPGNFLYCTFYGRPYKLQVLRVKGADGMILGGPQSDSDTDAQRMAFEQSSMETSSLELSLQLSQLDLEDTQIPTSRSTPYKPIDDRITNKASDVLLDVTQSPGDGSGLMLEEVTGLKCNFESAREGNEQLTEEERLLKFSIGAKCNTDTFYFISSTTRVNFTEIDKNSKEQDNQFKVTYDMIGGLSSQLKAIREIIELPLKQPELFKSYGIPAPRGVLLYGPPGTGKTMIARAVANEVGAYVSVINGPEIISKFYGETEAKLRQIFAEATLRHPSIIFIDELDALCPKREGAQNEVEKRVVASLLTLMDGIGSEVSEGQVLVLGATNRPHALDAALRRPGRFDKEIEIGVPNAQDRLDILQKLLRRVPHLLTEAELLQLANSAHGYVGADLKVLCNEAGLCALRRILKKQPNLPDVKVAGLVKITLKDFLQAMNDIRPSAMREIAIDVPNVSWSDIGGLESIKLKLEQAVEWPLKHPESFIRMGIQPPKGVLLYGPPGCSKTMIAKALANESGLNFLAIKGPELMNKYVGESERAVRETFRKARAVAPSIIFFDELDALAVERGSSLGAGNVADRVLAQLLTEMDGIEQLKDVTILAATNRPDRIDKALMRPGRIDRIIYVPLPDAATRREIFKLQFHSMPVSNEVDLDELILQTDAYSGAEIVAVCREAALLALEEDIQANLIMKRHFTQALSTVTPRIPESLRRFYEDYQEKSGLHTL

One assay concerns the target T1, NXT2 (native protein pulled down from adult human testis) (human (endogenous in adult testis)). Kind of assay: affinity purification with mass spectrometry.
Regarding XPO1 (from UniProt O14980 1-1071), the binding entry is listed as “no binding”.

The next assay shares this target. Kind of assay: affinity purification with mass spectrometry. This is another data set of the same source.
As for B1, the binding result is on record as “no binding”.
On the same count and under the same terms, then B2, with “binds”; and B3, with “binds”; and B4, with “binds”.
Same read-out and setting: then B5, with “binds”.
Still for that read-out and setting: then B6, with “binds”.
